Paper PMC6235892
No constants are given. Whether binding was seen depends on the method and setting. Binding seen in cells or lysates may run through a third protein. A result given as binding can be weak or reduced; the word gives no strength.

Chains of the proteins cited; added tags and fusions are not shown. Lines headed by an entry give the natural chain unless they say otherwise; changes in a name come on top.
UniProt P10417: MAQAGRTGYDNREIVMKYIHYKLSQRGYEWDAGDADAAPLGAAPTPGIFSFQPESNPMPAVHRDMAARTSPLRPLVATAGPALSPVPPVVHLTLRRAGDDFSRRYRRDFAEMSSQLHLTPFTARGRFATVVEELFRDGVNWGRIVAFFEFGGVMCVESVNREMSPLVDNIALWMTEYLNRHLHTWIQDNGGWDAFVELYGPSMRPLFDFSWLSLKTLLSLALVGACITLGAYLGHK
UniProt P06537: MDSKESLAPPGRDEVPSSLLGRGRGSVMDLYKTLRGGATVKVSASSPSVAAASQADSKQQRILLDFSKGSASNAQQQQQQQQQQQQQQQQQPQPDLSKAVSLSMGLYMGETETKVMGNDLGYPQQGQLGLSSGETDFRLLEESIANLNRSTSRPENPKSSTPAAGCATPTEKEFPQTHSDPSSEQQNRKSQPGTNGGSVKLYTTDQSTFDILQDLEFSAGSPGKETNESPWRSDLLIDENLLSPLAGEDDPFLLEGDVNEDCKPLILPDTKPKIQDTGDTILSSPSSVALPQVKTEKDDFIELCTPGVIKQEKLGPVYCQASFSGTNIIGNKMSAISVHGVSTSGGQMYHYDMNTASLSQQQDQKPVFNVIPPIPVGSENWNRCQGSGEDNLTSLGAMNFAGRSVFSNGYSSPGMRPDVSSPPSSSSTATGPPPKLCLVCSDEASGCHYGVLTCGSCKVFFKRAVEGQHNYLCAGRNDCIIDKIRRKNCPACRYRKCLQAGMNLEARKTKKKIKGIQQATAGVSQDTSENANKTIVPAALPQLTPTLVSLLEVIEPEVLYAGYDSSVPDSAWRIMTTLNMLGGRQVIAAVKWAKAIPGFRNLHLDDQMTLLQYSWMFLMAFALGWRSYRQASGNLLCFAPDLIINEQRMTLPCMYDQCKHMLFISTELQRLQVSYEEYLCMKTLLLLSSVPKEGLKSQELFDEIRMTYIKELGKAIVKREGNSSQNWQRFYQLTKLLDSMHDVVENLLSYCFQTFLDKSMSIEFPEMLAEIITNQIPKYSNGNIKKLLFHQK
UniProt Q60932: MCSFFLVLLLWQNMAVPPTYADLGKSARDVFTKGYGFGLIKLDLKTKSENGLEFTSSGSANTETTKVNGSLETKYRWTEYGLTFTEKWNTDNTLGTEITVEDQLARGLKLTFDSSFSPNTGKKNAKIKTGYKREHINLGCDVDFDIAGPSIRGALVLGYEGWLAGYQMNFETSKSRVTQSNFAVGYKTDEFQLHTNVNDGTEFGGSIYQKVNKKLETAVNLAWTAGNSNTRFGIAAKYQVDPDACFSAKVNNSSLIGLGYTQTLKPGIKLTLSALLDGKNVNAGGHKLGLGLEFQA

Legend:
[1] = target: Bcl-2, mouse (mouse (endogenous in hippocampus)) (UniProt P10417); test: co-IP; lysed hippocampus of male ICR mice exposed to vehicle or corticosterone (10 mg/kg), in one panel rapamycin (8 mg/kg) before; endogenous proteins
[2] = target: glucocorticoid receptor (GR), mouse (mouse (endogenous in hippocampus)) (UniProt P06537); test: as above

For “voltage-dependent anion-selective channel 1 (VDAC1), mouse (from UniProt Q60932)”, the binding [1] was “binds” and the binding [2] was “binds”.
